Results from publication PMC6797079.
No constants are given. Whether binding was seen depends on the method and setting. In cells and extracts the contact can be indirect. Some entries that bind do so weakly or less than the wild type. Sequences can lack the tags named with a protein.

How the values were obtained:
[1] = target: sodium/iodide symporter (NIS), wild type, MYC- or HA-tagged (human) (UniProt Q92911); test: co-IP; SW1736 and HeLa cells co-transfected with NIS-MYC and NIS-HA, lysed; precipitated with mouse anti-MYC and blotted with anti-HA, and the reverse (rabbit anti-HA, blot anti-MYC)
[2] = target: sodium/iodide symporter (NIS), wild type, MYC- or HA-tagged (human) (UniProt Q92911); test: proximity ligation; Duolink In Situ (Detection Reagents Red) with anti-MYC and anti-HA antibodies on fixed, permeabilised SW1736 and HeLa cells 48 hours after transfection; signal if the two are fewer than 40 nm apart
[3] = substrate: NIS Q471A, cerulean- or citrine-tagged (human) (UniProt Q92911); test: FRET or BRET; SW1736 and HeLa cells cotransfected with NIS variants conjugated to cerulean or citrine, spinning disk confocal imaging 48 hours post-transfection; corrected FRET (arbitrary units) after subtraction of CFP and YFP cross talk
[4] = substrate: NIS A525F, cerulean- or citrine-tagged (human) (UniProt Q92911); test: as above
[5] = substrate: T1, NIS D237A, cerulean- or citrine-tagged (human) (UniProt Q92911); test: as above
T1 sequence: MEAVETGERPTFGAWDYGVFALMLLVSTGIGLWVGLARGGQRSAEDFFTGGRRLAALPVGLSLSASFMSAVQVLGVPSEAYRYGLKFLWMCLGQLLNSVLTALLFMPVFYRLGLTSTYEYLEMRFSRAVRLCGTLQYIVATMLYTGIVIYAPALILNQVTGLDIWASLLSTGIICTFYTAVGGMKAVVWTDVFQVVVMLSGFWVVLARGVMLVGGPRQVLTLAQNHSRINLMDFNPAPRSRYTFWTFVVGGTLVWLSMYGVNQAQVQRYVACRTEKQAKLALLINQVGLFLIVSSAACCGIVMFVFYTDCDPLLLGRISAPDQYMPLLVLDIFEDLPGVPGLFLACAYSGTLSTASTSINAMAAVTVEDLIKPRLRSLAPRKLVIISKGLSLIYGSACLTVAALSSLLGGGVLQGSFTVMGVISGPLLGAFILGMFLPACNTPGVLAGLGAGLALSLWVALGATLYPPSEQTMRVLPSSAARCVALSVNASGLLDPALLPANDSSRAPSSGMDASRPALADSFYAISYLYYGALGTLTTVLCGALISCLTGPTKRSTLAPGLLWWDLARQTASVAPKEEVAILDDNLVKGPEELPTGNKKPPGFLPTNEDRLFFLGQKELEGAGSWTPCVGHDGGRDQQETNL

[6] = substrate: T2, NIS Y242A, cerulean- or citrine-tagged (human) (UniProt Q92911); test: as above
T2 sequence: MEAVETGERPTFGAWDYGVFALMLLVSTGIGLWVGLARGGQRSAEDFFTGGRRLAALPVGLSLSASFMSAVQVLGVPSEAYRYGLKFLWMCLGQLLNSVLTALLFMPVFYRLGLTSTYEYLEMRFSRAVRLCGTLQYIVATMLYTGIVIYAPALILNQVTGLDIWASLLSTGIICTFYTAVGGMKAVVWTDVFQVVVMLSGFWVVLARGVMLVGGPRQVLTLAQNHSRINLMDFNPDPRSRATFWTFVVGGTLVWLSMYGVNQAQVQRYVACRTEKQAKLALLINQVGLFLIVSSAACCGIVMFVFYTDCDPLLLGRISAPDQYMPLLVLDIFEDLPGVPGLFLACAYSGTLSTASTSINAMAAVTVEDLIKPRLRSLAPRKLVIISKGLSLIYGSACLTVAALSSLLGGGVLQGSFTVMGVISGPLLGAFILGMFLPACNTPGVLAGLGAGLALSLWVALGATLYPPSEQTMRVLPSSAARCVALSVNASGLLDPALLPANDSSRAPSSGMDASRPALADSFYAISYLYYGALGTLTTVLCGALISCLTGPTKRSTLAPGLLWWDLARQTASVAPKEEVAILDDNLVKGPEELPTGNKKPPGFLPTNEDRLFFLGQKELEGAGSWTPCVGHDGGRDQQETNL

[7] = substrate: NIS D237A, MYC- or HA-tagged (human) (UniProt Q92911); test: proximity ligation; Duolink In Situ (Detection Reagents Red) with anti-MYC and anti-HA antibodies on fixed, permeabilised SW1736 and HeLa cells 48 hours after transfection; signal if the two are fewer than 40 nm apart

B1: sodium/iodide symporter (NIS), wild type, MYC- or HA-tagged (protein, UniProt Q92911 1-643)
chain: MEAVETGERPTFGAWDYGVFALMLLVSTGIGLWVGLARGGQRSAEDFFTGGRRLAALPVGLSLSASFMSAVQVLGVPSEAYRYGLKFLWMCLGQLLNSVLTALLFMPVFYRLGLTSTYEYLEMRFSRAVRLCGTLQYIVATMLYTGIVIYAPALILNQVTGLDIWASLLSTGIICTFYTAVGGMKAVVWTDVFQVVVMLSGFWVVLARGVMLVGGPRQVLTLAQNHSRINLMDFNPDPRSRYTFWTFVVGGTLVWLSMYGVNQAQVQRYVACRTEKQAKLALLINQVGLFLIVSSAACCGIVMFVFYTDCDPLLLGRISAPDQYMPLLVLDIFEDLPGVPGLFLACAYSGTLSTASTSINAMAAVTVEDLIKPRLRSLAPRKLVIISKGLSLIYGSACLTVAALSSLLGGGVLQGSFTVMGVISGPLLGAFILGMFLPACNTPGVLAGLGAGLALSLWVALGATLYPPSEQTMRVLPSSAARCVALSVNASGLLDPALLPANDSSRAPSSGMDASRPALADSFYAISYLYYGALGTLTTVLCGALISCLTGPTKRSTLAPGLLWWDLARQTASVAPKEEVAILDDNLVKGPEELPTGNKKPPGFLPTNEDRLFFLGQKELEGAGSWTPCVGHDGGRDQQETNL
- binding [1]: binds
- binding [2]: binds

B2: NIS Q471A, cerulean- or citrine-tagged (protein, UniProt Q92911 1-643)
chain: MEAVETGERPTFGAWDYGVFALMLLVSTGIGLWVGLARGGQRSAEDFFTGGRRLAALPVGLSLSASFMSAVQVLGVPSEAYRYGLKFLWMCLGQLLNSVLTALLFMPVFYRLGLTSTYEYLEMRFSRAVRLCGTLQYIVATMLYTGIVIYAPALILNQVTGLDIWASLLSTGIICTFYTAVGGMKAVVWTDVFQVVVMLSGFWVVLARGVMLVGGPRQVLTLAQNHSRINLMDFNPDPRSRYTFWTFVVGGTLVWLSMYGVNQAQVQRYVACRTEKQAKLALLINQVGLFLIVSSAACCGIVMFVFYTDCDPLLLGRISAPDQYMPLLVLDIFEDLPGVPGLFLACAYSGTLSTASTSINAMAAVTVEDLIKPRLRSLAPRKLVIISKGLSLIYGSACLTVAALSSLLGGGVLQGSFTVMGVISGPLLGAFILGMFLPACNTPGVLAGLGAGLALSLWVALGATLYPPSEATMRVLPSSAARCVALSVNASGLLDPALLPANDSSRAPSSGMDASRPALADSFYAISYLYYGALGTLTTVLCGALISCLTGPTKRSTLAPGLLWWDLARQTASVAPKEEVAILDDNLVKGPEELPTGNKKPPGFLPTNEDRLFFLGQKELEGAGSWTPCVGHDGGRDQQETNL
- binding [3]: binds

B3: NIS A525F, cerulean- or citrine-tagged (protein, UniProt Q92911 1-643)
chain: MEAVETGERPTFGAWDYGVFALMLLVSTGIGLWVGLARGGQRSAEDFFTGGRRLAALPVGLSLSASFMSAVQVLGVPSEAYRYGLKFLWMCLGQLLNSVLTALLFMPVFYRLGLTSTYEYLEMRFSRAVRLCGTLQYIVATMLYTGIVIYAPALILNQVTGLDIWASLLSTGIICTFYTAVGGMKAVVWTDVFQVVVMLSGFWVVLARGVMLVGGPRQVLTLAQNHSRINLMDFNPDPRSRYTFWTFVVGGTLVWLSMYGVNQAQVQRYVACRTEKQAKLALLINQVGLFLIVSSAACCGIVMFVFYTDCDPLLLGRISAPDQYMPLLVLDIFEDLPGVPGLFLACAYSGTLSTASTSINAMAAVTVEDLIKPRLRSLAPRKLVIISKGLSLIYGSACLTVAALSSLLGGGVLQGSFTVMGVISGPLLGAFILGMFLPACNTPGVLAGLGAGLALSLWVALGATLYPPSEQTMRVLPSSAARCVALSVNASGLLDPALLPANDSSRAPSSGMDASRPALADSFYFISYLYYGALGTLTTVLCGALISCLTGPTKRSTLAPGLLWWDLARQTASVAPKEEVAILDDNLVKGPEELPTGNKKPPGFLPTNEDRLFFLGQKELEGAGSWTPCVGHDGGRDQQETNL
- binding [4]: binds
- binding [5]: binds
- binding [6]: binds

B4: NIS D237A, MYC- or HA-tagged (protein, UniProt Q92911 1-643)
chain: MEAVETGERPTFGAWDYGVFALMLLVSTGIGLWVGLARGGQRSAEDFFTGGRRLAALPVGLSLSASFMSAVQVLGVPSEAYRYGLKFLWMCLGQLLNSVLTALLFMPVFYRLGLTSTYEYLEMRFSRAVRLCGTLQYIVATMLYTGIVIYAPALILNQVTGLDIWASLLSTGIICTFYTAVGGMKAVVWTDVFQVVVMLSGFWVVLARGVMLVGGPRQVLTLAQNHSRINLMDFNPAPRSRYTFWTFVVGGTLVWLSMYGVNQAQVQRYVACRTEKQAKLALLINQVGLFLIVSSAACCGIVMFVFYTDCDPLLLGRISAPDQYMPLLVLDIFEDLPGVPGLFLACAYSGTLSTASTSINAMAAVTVEDLIKPRLRSLAPRKLVIISKGLSLIYGSACLTVAALSSLLGGGVLQGSFTVMGVISGPLLGAFILGMFLPACNTPGVLAGLGAGLALSLWVALGATLYPPSEQTMRVLPSSAARCVALSVNASGLLDPALLPANDSSRAPSSGMDASRPALADSFYAISYLYYGALGTLTTVLCGALISCLTGPTKRSTLAPGLLWWDLARQTASVAPKEEVAILDDNLVKGPEELPTGNKKPPGFLPTNEDRLFFLGQKELEGAGSWTPCVGHDGGRDQQETNL
- binding [7]: binds
